## Library screen at single concentrations

Source: ChEMBL document CHEMBL3988442, “University of Dundee, Small-Polar-MMV Screening Library” (2021).

Results are given as percent effect. The record does not define 0% and 100%; most values in the screen are far below 50% and negative numbers occur (in some assays of this library far below -100). Compounds were drawn at random from those tested, without regard to their results.

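Growth of Mycobacterium tuberculosis over 4 days (cholesterol / DPPC medium with tyloxapol); the read-out is not stated. Compounds at 500 µM. Direction is inferred from retests: higher values go with more growth inhibition. About 18,000 compounds were tested under these conditions; 5% (about 900) showed 50% or more at least once.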

{"compound": "NCCC(=O)N1CCOc2ccccc2C1", "percent effect": -5.227}
{"compound": "CCOC(=O)c1cnc(C(=O)Nc2nncs2)c(Cl)c1", "percent effect": -16.99}
{"compound": "OC(c1ncc[nH]1)C1CCNCC1", "stereo": "stereo not given", "percent effect": 5.859}
{"compound": "COCc1nc(-c2cnn(C)c2)cs1", "percent effect": 13.14}
{"compound": "Cc1ncsc1CCNC(=O)[C@@H](N)C(C)(C)C", "percent effect": -8.06}
{"compound": "CC(C)N1CCC(NC2CCC3(CC2)OCCO3)CC1", "percent effect": -12.63}
{"compound": "COCCCN(C)Cc1ccc2c(c1)OCO2", "percent effect": 7.898}
{"compound": "NC(=O)c1cc(N2CCCC2)nc2ccccc12", "percent effect": -3.114}
{"compound": "CC(N)C(=O)Nc1ccc(Cl)cc1", "stereo": "stereo not given", "percent effect": 5.647}
{"compound": "COCCCNC(=O)CN(C)c1ccc2nccn2n1", "percent effect": 9.562}
{"compound": "Cc1ncccc1C(=O)NCCc1ccnn1C", "percent effect": -7.898}
{"compound": "CC(=O)c1csc(C(=O)NCCN(C)C)c1", "percent effect": -16.89}
{"compound": "Cc1c(S(=O)(=O)Nc2cccc(F)c2)cnn1C", "percent effect": 36.07}
{"compound": "O=C(NCCN1C(=O)c2ccccc2S1(=O)=O)C1CC1", "percent effect": -8.926}
{"compound": "COCCNc1ncnc2c1cnn2CCC#N", "percent effect": 1.991}
{"compound": "CC(C)(C)OC(=O)NCCC(=O)NCC1CCCCN1", "stereo": "stereo not given", "percent effect": 7.38}
{"compound": "N#Cc1c(F)cccc1NC1CCC2(CC1)OCCO2", "percent effect": 3.657}
{"compound": "O=C(NCC1CCCNC1)c1ccccc1", "stereo": "stereo not given", "percent effect": 1.408}
{"compound": "CCN(C(=O)c1coc(S(=O)(=O)NC)c1)C1CC1", "percent effect": 12.47}
{"compound": "COCCn1cnnc1CCNC(=O)c1cnccn1", "percent effect": -2.537}
{"compound": "COc1cc2c(cc1OC)CN(C(=O)C(C)C)CC2", "percent effect": 11.12}
{"compound": "CCNc1ccnc(C(=O)NCc2ccccc2)c1", "percent effect": 34.62}
{"compound": "NCC(C(=O)N1CCS(=O)(=O)CC1)c1ccccc1", "stereo": "stereo not given", "percent effect": 1.146}
{"compound": "CN(C)c1nc(N)nc(CN2CCSCC2CCO)n1", "stereo": "stereo not given", "percent effect": -5.752}
{"compound": "CCOC(=O)CC1(N)CCOCC1", "percent effect": 2.483}
{"compound": "CNC(=O)C1CN(CCc2cccs2)CCO1", "stereo": "stereo not given", "percent effect": 3.348}
{"compound": "CC(C)(N)C(C)(C)CO", "percent effect": 3.664}
{"compound": "CCn1ncnc1CN1C[C@H](O)[C@@H](N2CCCCC2)C1", "percent effect": -14.68}
{"compound": "NCc1ccccc1CN1CCC(O)CC1", "percent effect": -7.854}
{"compound": "CN(C)CCNc1oc(-c2ccccc2)nc1C#N", "percent effect": 10.3}
{"compound": "CC(=O)NC1CCN(C(C)C)CC1", "percent effect": 0.287}
{"compound": "O=C(CSc1ccncc1)NCCn1cccc1", "percent effect": 15.84}
{"compound": "CC(=O)NCCNC(=O)N1CCc2sccc2C1", "percent effect": -9.367}
{"compound": "CN(C)C1CCN(C(=O)CN(C)S(C)(=O)=O)CC1", "percent effect": 9.146}
{"compound": "CCN1CCC(N2CCCNCC2)CC1", "percent effect": -5.431}
{"compound": "NC(=O)C1CCCN(Cc2ccc(Cl)cc2)C1", "stereo": "stereo not given", "percent effect": 9.792}
{"compound": "CN(Cc1ccco1)C(=O)c1cccc(C#N)c1", "percent effect": 53.19}
{"compound": "CCc1nn(C)c(CC)c1S(=O)(=O)N1CCCNCC1", "percent effect": 4.386}
{"compound": "CCC(CO)(CO)NCC(O)COCc1ccco1", "stereo": "stereo not given", "percent effect": 6.727}
{"compound": "Cc1ccc(S(=O)(=O)N2CC[C@H](O)C2)cc1N(C)C", "percent effect": 1.238}
{"compound": "CC(C)C[C@H](N)c1nnc2ccccn12", "percent effect": 13.38}
{"compound": "NC(=O)NC(=O)CCS(=O)(=O)c1cc(F)ccc1F", "percent effect": 112.1}
{"compound": "CCCC(NC(=O)c1cnc(O)cn1)c1nccn1C", "stereo": "stereo not given", "percent effect": -20.6}
{"compound": "N[C@H]1CN(C(=O)Cn2cc(Cl)cn2)C[C@@H]1C1CC1", "percent effect": 13.53}
{"compound": "NCc1cccc(CN2CCCC2)c1", "percent effect": -15.45}
{"compound": "Cc1nn(C)cc1C(=O)N1C[C@@H](CO)[C@H](N(C)C)C1", "percent effect": 2.191}
{"compound": "CC(=O)NCCCNS(=O)(=O)c1cccc(Cl)c1F", "percent effect": -9.825}
{"compound": "CCN1CCN(C2CCCC2)C(CCO)C1", "stereo": "stereo not given", "percent effect": -13.66}